From patent publication US4501733A (Ferring Arzneimittel GmbH, priority 1982, dated 1985) come the findings set out here.

The data set in a line: general procedure: Boc solid-phase peptide synthesis; chloromethyl resin (Boc-amino acid Cs salt, ester bond). The note with it: whole synthesis, based on the Boc-Met content of the resin.

HELM strings list residues between dots; [ac] is acetyl, [am] amide, other brackets name non-standard units.

On to “PEPTIDE1{R.[dP].K.P.Q.Q.[dW].F.[dW].L.M.[am]}$$$$V2.0”, for which the isolated yield is 15% of theory.
